Source: publication PMC9618025
Results are given in words; binding and its absence hold for the method and conditions named. Binding seen in cells or lysates may run through a third protein. A result given as binding can be weak or reduced; the word gives no strength.

The chains behind the UniProt entries cited, without tags or fusion partners. Where a name states a change or a piece, a line headed by the entry shows the natural chain unless it says otherwise. A line that says so, or that is headed by a name, gives the form on record, which may keep a tag or linker.
UniProt Q13586: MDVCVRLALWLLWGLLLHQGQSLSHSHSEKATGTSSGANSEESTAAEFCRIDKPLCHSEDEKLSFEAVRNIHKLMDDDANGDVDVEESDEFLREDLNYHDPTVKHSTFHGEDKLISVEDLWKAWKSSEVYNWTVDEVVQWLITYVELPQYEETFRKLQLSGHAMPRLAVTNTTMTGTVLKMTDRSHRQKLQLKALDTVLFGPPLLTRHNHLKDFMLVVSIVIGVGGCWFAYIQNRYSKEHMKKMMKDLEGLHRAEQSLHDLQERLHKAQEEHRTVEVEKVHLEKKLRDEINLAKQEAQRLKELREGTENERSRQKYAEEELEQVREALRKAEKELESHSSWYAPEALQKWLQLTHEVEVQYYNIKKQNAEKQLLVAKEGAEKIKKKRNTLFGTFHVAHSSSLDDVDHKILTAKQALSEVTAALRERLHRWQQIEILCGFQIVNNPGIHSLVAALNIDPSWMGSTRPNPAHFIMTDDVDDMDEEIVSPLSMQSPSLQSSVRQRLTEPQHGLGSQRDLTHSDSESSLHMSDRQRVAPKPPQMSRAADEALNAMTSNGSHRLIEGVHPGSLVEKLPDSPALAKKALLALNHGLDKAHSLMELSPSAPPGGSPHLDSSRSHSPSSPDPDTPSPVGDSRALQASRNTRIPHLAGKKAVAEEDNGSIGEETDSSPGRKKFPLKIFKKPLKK
TRPC1-myc (P48995-2, form named): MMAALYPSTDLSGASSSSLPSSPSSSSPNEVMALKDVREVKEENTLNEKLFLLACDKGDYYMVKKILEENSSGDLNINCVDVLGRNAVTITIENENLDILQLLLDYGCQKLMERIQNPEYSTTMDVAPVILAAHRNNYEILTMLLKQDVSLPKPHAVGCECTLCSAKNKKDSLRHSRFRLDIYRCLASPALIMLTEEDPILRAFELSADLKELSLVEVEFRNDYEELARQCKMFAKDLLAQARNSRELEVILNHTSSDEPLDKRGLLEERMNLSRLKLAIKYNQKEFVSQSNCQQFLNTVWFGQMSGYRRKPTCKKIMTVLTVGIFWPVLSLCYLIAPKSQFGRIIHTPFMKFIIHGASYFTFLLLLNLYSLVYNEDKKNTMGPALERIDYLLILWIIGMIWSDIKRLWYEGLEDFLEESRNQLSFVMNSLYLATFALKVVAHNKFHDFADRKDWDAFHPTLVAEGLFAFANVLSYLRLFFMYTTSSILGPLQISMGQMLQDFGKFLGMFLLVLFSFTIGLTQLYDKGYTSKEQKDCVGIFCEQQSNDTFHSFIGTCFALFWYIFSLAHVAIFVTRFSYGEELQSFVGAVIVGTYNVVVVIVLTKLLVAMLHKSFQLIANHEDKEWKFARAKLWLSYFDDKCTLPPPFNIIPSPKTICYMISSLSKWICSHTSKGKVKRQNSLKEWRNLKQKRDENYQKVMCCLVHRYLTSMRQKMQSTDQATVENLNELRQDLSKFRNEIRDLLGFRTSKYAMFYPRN
TRPC1 D639A&D640A-myc (DDAA) (P48995-2, form named): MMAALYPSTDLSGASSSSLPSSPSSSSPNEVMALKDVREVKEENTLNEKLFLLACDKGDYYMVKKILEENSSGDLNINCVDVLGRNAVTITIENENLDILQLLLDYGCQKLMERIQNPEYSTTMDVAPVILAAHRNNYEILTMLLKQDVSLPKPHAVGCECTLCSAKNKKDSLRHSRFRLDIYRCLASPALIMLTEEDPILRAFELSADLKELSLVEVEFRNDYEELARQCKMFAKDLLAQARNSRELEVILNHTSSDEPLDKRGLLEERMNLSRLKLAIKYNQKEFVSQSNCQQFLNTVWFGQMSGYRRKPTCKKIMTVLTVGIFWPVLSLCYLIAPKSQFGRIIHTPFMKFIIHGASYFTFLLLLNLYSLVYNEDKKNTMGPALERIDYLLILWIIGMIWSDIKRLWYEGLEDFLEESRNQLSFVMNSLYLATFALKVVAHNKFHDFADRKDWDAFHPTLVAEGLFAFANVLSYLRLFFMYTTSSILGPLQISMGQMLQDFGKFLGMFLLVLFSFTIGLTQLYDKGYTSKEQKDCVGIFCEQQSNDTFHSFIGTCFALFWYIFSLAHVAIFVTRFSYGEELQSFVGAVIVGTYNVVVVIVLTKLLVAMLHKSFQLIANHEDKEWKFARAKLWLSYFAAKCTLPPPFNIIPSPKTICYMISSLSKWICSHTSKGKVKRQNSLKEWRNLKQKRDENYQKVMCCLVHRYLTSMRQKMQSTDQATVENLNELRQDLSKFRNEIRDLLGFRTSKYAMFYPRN

Experiments:
[1] = target: STIM1-FLAG (Stromal Interaction Molecule 1, FLAG-tagged) (human) (UniProt Q13586); assay: co-IP; A549 cells stably expressing STIM1-FLAG or STIM1ΔK-FLAG, treated with or without 800 μM PQ for 24 h; RIPA lysate, FLAG-M2 beads 3 h at 4 °C, washed with PBS; blots for ORAI1 and TRPC1
[2] = target: STIM1-FLAG (Stromal Interaction Molecule 1, FLAG-tagged) (human) (UniProt Q13586); assay: co-IP; A549 cells expressing STIM1-FLAG (or mutants) and TRPC1-myc (or DDAA), treated with or without 800 μM PQ for 30 min; RIPA lysate, FLAG-M2 beads or Myc beads as indicated, 3 h at 4 °C

binding [1] | binding [2] | Substance
binds |  | Transient Receptor Potential Cation Channel Subfamily C Member 1 (TRPC1), endogenous in A549 cells (from UniProt P48995-2 1-759)
 | binds | TRPC1 D639A&D640A-myc (DDAA) (from UniProt P48995-2 1-759)
 | binds | TRPC1-myc (from UniProt P48995-2 1-759)
